The values below come from patent publication US20210015937A1.

Chains of the proteins cited; added tags and fusions are not shown. Lines headed by an entry give the natural chain unless they say otherwise; changes in a name come on top.
UniProt P18627: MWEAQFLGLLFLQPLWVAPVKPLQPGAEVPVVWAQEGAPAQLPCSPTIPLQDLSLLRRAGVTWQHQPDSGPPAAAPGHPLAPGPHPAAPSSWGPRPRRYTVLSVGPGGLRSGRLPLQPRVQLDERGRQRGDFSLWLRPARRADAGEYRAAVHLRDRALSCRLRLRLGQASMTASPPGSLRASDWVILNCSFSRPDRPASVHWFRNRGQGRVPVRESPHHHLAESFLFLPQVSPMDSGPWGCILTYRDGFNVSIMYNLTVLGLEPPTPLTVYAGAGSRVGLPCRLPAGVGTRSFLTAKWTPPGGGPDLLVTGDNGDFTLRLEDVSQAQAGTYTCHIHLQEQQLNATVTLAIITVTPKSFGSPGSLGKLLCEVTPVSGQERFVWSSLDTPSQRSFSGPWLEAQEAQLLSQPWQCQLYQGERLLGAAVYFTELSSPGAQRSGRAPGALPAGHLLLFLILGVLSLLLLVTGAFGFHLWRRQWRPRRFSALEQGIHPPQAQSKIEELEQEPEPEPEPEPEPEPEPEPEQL

In assay [1] the target is LAG-3 and PD-1 on activated human T cells (human) (UniProt P18627). The assay can be described thus: flow cytometry on activated human T cells. In general terms: Flow cytometry measures light scatter and fluorescence of single cells or particles in a stream.
Assay [2] has the same target. In words: flow cytometry (Intellicyte) on anti-CD3/anti-CD28 stimulated human CD4+ T cells; His-tagged VH detected with anti-HIS biotin and streptavidin AlexaFluor488.
The target is the same in assay [3]. The assay can be described thus: flow cytometry on activated human T cells (FIG. 2).
The target is the same in assay [4]. The assay can be described thus: flow cytometry on anti-CD3/anti-CD28 stimulated CD4+ T cells, anti-HIS detection.

Results are given in words; binding and its absence hold for the method and conditions named. Some entries that bind do so weakly or less than the wild type. Where a sequence is shown, tags or fusion partners need not be part of it.

B1: VH1.2-6GS-VH1.2-6GS-VH2.92-His6 (bispecific antibody)
chain: EVQLVESGGGVVRPGGSLRLSCAASGFTFDDYGMSWVRQAPGKGLEWVSGIHWNGGSTGYADSVKGRFTISRDNAKNSLYLQMNSLRAEDTALYYCARIPREDCSSASCYTDAIDFWGQGTMVTVSSGGGGSGGGGSGGGGSGGGGSGGGGSGGGGSEVQLVESGGGVVRPGGSLRLSCAASGFTFDDYGMSWVRQAPGKGLEWVSGIHWNGGSTGYADSVKGRFTISRDNAKNSLYLQMNSLRAEDTALYYCARIPREDCSSASCYTDAIDFWGQGTMVTVSSGGGGSGGGGSGGGGSGGGGSGGGGSGGGGSEVQLVESGGGLVKPGGSLRLSCAASGFTFSDESMTWMRQAPGKGLEWVSYISSGGGVKFYADSVKGRFTISRDNAKNSLYLQMNSLRAEDTAVYYCAREAPLRLGESPHDAFDISGQGTMVTVSSAAAHHHHHH
In the case of B1, in assay [1], the binding entry is reported as “binds”.

B2: VH1.1-6GS-VH1.1-9GS-VH2.63-His6 (bispecific antibody)
chain: EVQLVESGGGVVRPGGSLRLSCSASGFTFDDYGMSWVRQAPGKGLEWVSGIHWNGGNSGYADSVKGRFTISRDNAKNSLYLQMNSLRAEDTALYYCARIPREDCSSASCYTDAIDFWGPGTMVTVSSGGGGSGGGGSGGGGSGGGGSGGGGSGGGGSEVQLVESGGGVVRPGGSLRLSCSASGFTFDDYGMSWVRQAPGKGLEWVSGIHWNGGNSGYADSVKGRFTISRDNAKNSLYLQMNSLRAEDTALYYCARIPREDCSSASCYTDAIDFWGPGTMVTVSSGGGGSGGGGSGGGGSGGGGSGGGGSGGGGSGGGGSGGGGSGGGGSEVQLVESGGGLVKPGGSLRLSCAASGFTFSDSSMTWMRQAPGKGLEWVSYISSGGGVKFYTDSVKGRFTISRDNAKNSLYLQMNSLRADDTAVYYCAREAPLRLGESPHDAFDISGQGTMVTVSSAAAHHHHHH
With B2, the binding result in assay [2], in assay [3] and in assay [4] was “binds” in each case.
